# According to the supplement of paper PMC10338343:
# ± gives the standard deviation. The list shows a part of the results. Many of these values have a large error.
# Test system: EfPiwi piRISC loaded with L1MC piRNA (26 nt)
# Assay: pre-steady-state target cleavage rate (min^-1); guide: L1MC piRNA 5'p-UAACUAAAUACUAUGCAAGCUGUAGG; MIWI and MILI are mouse PIWI proteins and EfPiwi is from a freshwater sponge; tags in brackets are library labels; higher = faster piRNA-guided slicing of the target
# Conditions: auxiliary factor: none (no Gtsf1)
# How it was run: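 Cleave-'n-Seq measured uncleaved targets by sequencing after a transcribed, DNA-blocked target RNA library […] was mixed with 1 nM active affinity-purified piRISC holding one synthetic guide, with or without 500 nM GTSF1 partner protein, at 33 °C in HEPES–potassium acetate buffer for 0–8 or 0–960 min. Counts were normalised to depth and to weakly complementary targets, three trials were pooled, and k3 was capped at 0.0001 min^-1. A burst-and-steady-state fit gave the pre-steady-state cleavage rate.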
row,Sequence,pre-steady-state target cleavage rate
1,UCCUGGAUGUCGAACGUAUCUAUUUAUGUUA,0.000228 ± 0.032
2,UCCUGCUACAGCUUGCAUAGUAUUUUCAAA,0.000382 ± 0.015
3,UCCUGGAUGUCCUUGCAUAGUUAAUAGUAA,0.000354 ± 0.024
4,UCCUCCUACAGCUACGAUAGUAUUUAGUAA,0.000428 ± 0.01
